Values of other authors as cited in patent US12297220B2, “Phenethylamines and cathinones precursors” (Transcend Therapeutics, Inc., priority 2022, dated 2025).

Settings: reported by consumers; cited from earlier work

**Q.** Which results are given for `CNC(C)C(=O)c1ccc2c(c1)OCO2` (centres unmarked) [Methylone, methylone]?
**A.** duration: 2 to 3.5 h; onset of action: 15 to 30 min
